For 1 molecule, binding results are on record in doi:10.1101/2021.10.08.463358.

Results are given in words; binding and its absence hold for the method and conditions named. Binding seen in cells or lysates may run through a third protein. Some binding calls cover weakened binding; strength is not graded here.

In the assay the target is T1, Venus-XLG2 (EXTRA LARGE G-PROTEIN 2, wild type) (Arabidopsis thaliana) (UniProt C6KIE6).
T1 sequence: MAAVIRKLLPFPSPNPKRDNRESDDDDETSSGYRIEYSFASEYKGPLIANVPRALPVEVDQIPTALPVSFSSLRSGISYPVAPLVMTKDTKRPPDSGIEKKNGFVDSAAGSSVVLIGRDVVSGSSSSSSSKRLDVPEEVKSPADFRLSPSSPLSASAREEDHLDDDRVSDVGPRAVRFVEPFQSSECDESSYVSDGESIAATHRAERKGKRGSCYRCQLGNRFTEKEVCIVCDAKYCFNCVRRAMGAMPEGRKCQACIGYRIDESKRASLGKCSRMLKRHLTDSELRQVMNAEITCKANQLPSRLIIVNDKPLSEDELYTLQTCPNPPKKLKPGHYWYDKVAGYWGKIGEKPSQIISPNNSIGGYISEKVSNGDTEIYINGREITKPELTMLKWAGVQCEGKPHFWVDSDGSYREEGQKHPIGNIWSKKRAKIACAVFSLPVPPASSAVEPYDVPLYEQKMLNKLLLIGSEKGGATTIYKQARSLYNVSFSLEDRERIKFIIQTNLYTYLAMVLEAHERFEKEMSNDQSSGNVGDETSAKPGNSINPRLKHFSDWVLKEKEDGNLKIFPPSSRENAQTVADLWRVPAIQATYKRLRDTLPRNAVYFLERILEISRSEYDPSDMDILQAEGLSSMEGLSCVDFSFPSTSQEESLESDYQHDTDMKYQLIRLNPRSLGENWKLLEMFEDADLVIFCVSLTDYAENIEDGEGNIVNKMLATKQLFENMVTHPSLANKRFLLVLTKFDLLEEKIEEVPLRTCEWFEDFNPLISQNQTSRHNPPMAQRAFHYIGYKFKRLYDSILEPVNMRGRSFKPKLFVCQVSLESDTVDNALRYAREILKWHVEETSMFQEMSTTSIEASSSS
Put plainly: co-IP.

B1: AGB1 (heterotrimeric G-protein beta subunit) (protein, UniProt P49177 1-377)
chain: MSVSELKERHAVATETVNNLRDQLRQRRLQLLDTDVARYSAAQGRTRVSFGATDLVCCRTLQGHTGKVYSLDWTPERNRIVSASQDGRLIVWNALTSQKTHAIKLPCAWVMTCAFSPNGQSVACGGLDSVCSIFSLSSTADKDGTVPVSRMLTGHRGYVSCCQYVPNEDAHLITSSGDQTCILWDVTTGLKTSVFGGEFQSGHTADVLSVSISGSNPNWFISGSCDSTARLWDTRAASRAVRTFHGHEGDVNTVKFFPDGYRFGTGSDDGTCRLYDIRTGHQLQVYQPHGDGENGPVTSIAFSVSGRLLFAGYASNNTCYVWDTLLGEVVLDLGLQQDSHRNRISCLGLSADGSALCTGSWDSNLKIWAFGGHRRVI
For the molecule B1, the binding result is given as “binds”.
